The target in the assay is programmed death ligand 1 (PD-L1) (human (endogenous in Hep3B)) (UniProt Q9NZQ7). The assay is described as follows: co-IP; endogenous proteins of Hep3B cells with or without LA; total cell lysate and nuclear extract; 2 ug antibody in cell lysate overnight at 4°C, protein G-Sepharose beads 3 hours at 4°C, immunoblotting.

Protein sequences, listed by entry. Tags and fused reporters are not part of them. Lines headed by an entry give the natural chain unless they say otherwise; changes in a name come on top. Residues count along the entry.
UniProt Q9NZQ7, residues 19-290: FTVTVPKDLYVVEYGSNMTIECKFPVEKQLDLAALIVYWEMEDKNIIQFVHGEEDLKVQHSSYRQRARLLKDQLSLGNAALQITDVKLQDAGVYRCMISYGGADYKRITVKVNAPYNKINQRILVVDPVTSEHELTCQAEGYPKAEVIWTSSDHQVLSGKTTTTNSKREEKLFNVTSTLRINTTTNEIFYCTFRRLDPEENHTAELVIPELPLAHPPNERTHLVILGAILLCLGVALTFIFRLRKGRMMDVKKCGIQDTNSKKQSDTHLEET
UniProt O75367: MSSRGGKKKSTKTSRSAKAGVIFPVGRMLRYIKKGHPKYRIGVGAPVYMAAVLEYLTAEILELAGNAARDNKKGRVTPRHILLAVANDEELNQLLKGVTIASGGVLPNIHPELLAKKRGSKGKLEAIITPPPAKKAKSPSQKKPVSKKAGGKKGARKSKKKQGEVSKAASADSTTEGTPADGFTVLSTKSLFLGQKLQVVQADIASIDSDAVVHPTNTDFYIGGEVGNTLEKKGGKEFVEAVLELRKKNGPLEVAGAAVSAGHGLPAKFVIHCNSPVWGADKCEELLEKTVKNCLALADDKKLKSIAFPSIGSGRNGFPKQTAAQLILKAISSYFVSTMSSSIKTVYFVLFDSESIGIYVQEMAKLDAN

Results are given in words; binding and its absence hold for the method and conditions named. In cells and extracts the contact can be indirect. Some results given as binding are weak or reduced against the parent protein; the word gives no strength.

Take “histone variant macroH2A1 phosphorylated at S146 (mH2A1-p146) (from UniProt O75367 1-369)”: the binding result was “binds”.

For the origin of these results see article PMC11563670.
